pIC50: −log10 of the molar value.
Test system: Hela cells
Experiment: HeLa cell viability, MTT assay
Assay type: cell-based, Human
Details: 48 hours exposure, total Pt concentration
Method: The cells were exposed to solutions of Pt-BASP or free cisplatin with varied total Pt concentration for 48 hours. […] Addition of ligands to the PEG periphery that induce internalization may lead to even greater efficacy.
Human Hela cell line was cultured at 37° C. under a humidified atmosphere of 5% CO2. The cells were grown in the final medium (FMEM) consist of 89% Eagle's minimum essential medium (EMEM, ATCC, 30-2003), 10% fetal bovine serum (Gibco, 10437028) and 1% antibiotics (100 U/mL penicillin and 100 μg/mL streptomycin, Gibco. 105140122). The cells were continuously maintained in the culture medium and subcultured every 3-4 days.
Hela cells were seeded at 10.000 cells/well in a 96-well plate and allowed to attach for 20 h before drug treatment. Prior to drug exposure, the culture medium was removed. Then, fresh media with drug concentrations ranging from 0 to 400 μM (based on dry weight of polymer dissolved in FMEM) were added to the appropriate wells. The cells were subsequently incubated in a cell culture incubator for 48 h. The medium was removed before fresh drug-free medium was added to each well. The cells were incubated for another 24 h before analysis by the MTT cell proliferation assay (ATCC, 30-1010K). Cells were incubated with fresh medium containing MTT reagent for 4 h at 37° C. […] Absorbance at 550 nm was measured on a Safire II (Tecan) plate reader. […]

N.N.[Cl][Pt][Cl] [cisplatin]
pIC50: 4.64
